Patent US6492381B1, “Tricyclic carbamate compounds useful for inhibition of G-protein function and for treatment of proliferative diseases” (Schering Corp., priority 1993, dated 2002)

The chains behind the UniProt entries cited, without tags or fusion partners.
UniProt Q02293, whole entry: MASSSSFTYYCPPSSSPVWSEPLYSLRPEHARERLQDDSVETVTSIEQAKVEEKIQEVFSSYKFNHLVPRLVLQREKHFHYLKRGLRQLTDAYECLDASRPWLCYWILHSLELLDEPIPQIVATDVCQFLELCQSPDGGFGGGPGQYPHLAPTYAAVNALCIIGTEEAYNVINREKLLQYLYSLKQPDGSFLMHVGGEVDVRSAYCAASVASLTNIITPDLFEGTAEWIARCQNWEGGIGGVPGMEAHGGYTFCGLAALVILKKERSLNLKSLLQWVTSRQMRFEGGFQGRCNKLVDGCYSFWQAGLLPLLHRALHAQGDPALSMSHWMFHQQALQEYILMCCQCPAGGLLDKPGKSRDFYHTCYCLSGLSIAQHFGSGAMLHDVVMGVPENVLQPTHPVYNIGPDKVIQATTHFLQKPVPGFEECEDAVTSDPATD

Biological target: T1, farnesyl protein transferase (FPT) (Rattus norvegicus, UniProt Q02293+Q04631)
T1 construct: were partially purified from rat brain by ammonium sulfate fractionation followed by Q-Sepharose; from tissue; host or cells: rat brain
Experiment: In vitro enzyme assay: inhibition of farnesyl protein transferase
Type: biochemical
Method: 1. In vitro enzyme assays: Inhibition of farnesyl protein transferase and geranylgeranyl protein transferase.
Human farnesyl protein transferase was also expressed in E. coli, using cDNA clones encoding both the α and β subunits. […] Two forms of val^12-Ha-Ras protein were prepared as substrates for these enzymes, differing in their carboxy terminal sequence. One form terminated in cysteine-valine-leucine-serine (Ras-CVLS) the other in cystein-valine-leucine-leucine (Ras-CVLL). Ras-CVLS is a substrate for the farnesyl protein transferase while Ras-CVLL is a substrate for geranylgeranyl protein transferase I. The cDNAs encoding these proteins were constructed so that the proteins contain an amino-terminal extension of 6 histidine residues. Both proteins were expressed in Escherichia coli and purified using metal chelate affinity chromatography. The radiolabelled isoprenyl pyrophosphate substrates, [^3H]farnesyl pyrophosphate and [^3H]geranylgeranyl pyrophosphate, were purchased from DuPont/New England Nuclear.
The reaction was allowed to proceed for 30 minutes at room temperature and then stopped with 0.5 ml of 4% sodium dodecyl sulfate (SDS) followed by 0.5 ml of cold 30% trichloracetic acid (TCA). […] Percent inhibition was calculated relative to the DMSO vehicle control.

O=C(Sc1ccccc1)N1CCC(=C2c3ccc(Cl)cc3CCc3cccnc32)CC1 [Compound 595.00, 4-(8-chloro-5,6-dihydro-11H-benzo[5,6]cyclohepta[1,2-b]-pyridin-11ylidene)-1-piperinecarbothioic Acid, S-phenyl Ester]
IC50: 0.24 µM
